Test system: Navy dolphins
Experiment: Correlations of serum histidine betaine concentrations with health indices in the dolphin serum metabolome
Format: in vivo, bottlenose dolphins (Tursiops truncatus)
Conditions: wild Sarasota Bay dolphins vs Navy dolphins

## C[N+](C)(C)C(Cc1cnc[nH]1)C(=O)[O-] (stereo not shown) [histidine betaine]
  Serum concentration, Sarasota vs Navy: 2.96 (x times higher)
